Measured values taken from US20060052326A1, “Werner's syndrome helicase as a target for anti -HIV/AIDS therapy” (priority 2004, published 2006).
No constants are given. Whether binding was seen depends on the method and setting. In cells and extracts the contact can be indirect. Some entries that bind do so weakly or less than the wild type.

Protein sequences, listed by entry. Tags and fused reporters are not part of them. Lines headed by an entry give the natural chain unless they say otherwise; changes in a name come on top.
UniProt P04608: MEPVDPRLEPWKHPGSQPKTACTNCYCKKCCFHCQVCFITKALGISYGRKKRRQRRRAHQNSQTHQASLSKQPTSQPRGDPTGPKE
UniProt O60563: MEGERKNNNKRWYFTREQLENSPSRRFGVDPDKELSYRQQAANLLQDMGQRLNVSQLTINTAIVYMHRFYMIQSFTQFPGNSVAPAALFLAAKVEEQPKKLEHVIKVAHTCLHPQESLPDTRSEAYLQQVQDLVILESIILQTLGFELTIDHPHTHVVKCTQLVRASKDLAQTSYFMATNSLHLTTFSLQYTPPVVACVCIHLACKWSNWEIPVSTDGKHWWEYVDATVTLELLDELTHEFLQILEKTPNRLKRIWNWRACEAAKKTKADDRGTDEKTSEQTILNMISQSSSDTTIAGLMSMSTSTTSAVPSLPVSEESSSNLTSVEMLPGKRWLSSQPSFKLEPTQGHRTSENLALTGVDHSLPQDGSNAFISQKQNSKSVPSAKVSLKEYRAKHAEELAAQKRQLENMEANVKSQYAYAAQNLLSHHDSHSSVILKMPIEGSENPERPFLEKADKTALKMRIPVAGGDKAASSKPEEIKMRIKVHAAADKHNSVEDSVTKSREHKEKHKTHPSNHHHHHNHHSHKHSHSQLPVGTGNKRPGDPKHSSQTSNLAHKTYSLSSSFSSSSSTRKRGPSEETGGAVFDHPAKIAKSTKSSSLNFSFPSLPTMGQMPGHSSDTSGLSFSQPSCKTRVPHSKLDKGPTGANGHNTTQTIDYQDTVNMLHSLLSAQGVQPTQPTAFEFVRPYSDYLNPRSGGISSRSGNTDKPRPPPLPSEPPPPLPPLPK

Target: HIV-1 Tat protein as expressed in HIV-1IIIB-infected H9 lymphocytes (HIV-1) (UniProt P04608)
Assay: co-immunoprecipitation from H9HIV-1IIIB cells with rabbit polyclonal anti-HIV-1 Tat antibody and protein G-agarose; bound cdk9 detected by immunoblotting

cyclin T1-cdk9 complex (from UniProt O60563 1-726; P50750 1-372)
binding: binds
